Test results from PMC8523568.
These are yes or no findings as the source states them, for the method shown. Binding seen in cells or lysates may run through a third protein. Here binding means that the protein was enriched with, or labelled near, the bait; the list need not be complete. Where a sequence is shown, tags or fusion partners need not be part of it.

Sequences of proteins named here, by UniProt entry; tags and fusion partners are left off. Residues count along the entry.
UniProt P11021, residues 19-654: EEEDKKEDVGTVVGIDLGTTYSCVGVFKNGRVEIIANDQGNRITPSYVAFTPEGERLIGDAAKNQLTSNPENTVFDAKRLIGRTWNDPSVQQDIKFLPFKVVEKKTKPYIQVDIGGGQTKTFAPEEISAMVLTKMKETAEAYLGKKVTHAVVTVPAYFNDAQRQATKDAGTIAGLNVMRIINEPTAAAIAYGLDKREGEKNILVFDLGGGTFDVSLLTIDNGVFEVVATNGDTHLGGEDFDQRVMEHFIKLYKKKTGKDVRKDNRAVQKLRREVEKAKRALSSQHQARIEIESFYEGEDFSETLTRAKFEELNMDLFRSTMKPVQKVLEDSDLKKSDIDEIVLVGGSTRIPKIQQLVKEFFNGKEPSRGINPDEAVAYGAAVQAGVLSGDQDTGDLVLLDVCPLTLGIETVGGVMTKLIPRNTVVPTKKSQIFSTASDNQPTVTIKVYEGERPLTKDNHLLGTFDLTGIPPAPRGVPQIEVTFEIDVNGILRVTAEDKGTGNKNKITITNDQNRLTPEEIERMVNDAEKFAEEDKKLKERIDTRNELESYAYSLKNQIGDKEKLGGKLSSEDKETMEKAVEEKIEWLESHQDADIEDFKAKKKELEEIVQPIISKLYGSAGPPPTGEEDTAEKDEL
UniProt O00483: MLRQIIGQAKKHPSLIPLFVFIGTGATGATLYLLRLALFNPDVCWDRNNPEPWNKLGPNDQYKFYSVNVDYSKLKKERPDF
UniProt Q9NP72: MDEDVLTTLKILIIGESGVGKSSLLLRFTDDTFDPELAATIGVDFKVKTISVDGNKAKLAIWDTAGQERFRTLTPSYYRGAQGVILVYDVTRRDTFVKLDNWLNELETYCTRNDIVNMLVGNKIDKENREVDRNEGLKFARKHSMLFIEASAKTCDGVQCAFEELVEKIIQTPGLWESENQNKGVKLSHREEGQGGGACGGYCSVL
UniProt P63208: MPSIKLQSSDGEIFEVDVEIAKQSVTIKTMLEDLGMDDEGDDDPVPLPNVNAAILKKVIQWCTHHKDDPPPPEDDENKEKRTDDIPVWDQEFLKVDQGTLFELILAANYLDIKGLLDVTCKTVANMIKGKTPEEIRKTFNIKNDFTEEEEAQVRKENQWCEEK
UniProt P63104: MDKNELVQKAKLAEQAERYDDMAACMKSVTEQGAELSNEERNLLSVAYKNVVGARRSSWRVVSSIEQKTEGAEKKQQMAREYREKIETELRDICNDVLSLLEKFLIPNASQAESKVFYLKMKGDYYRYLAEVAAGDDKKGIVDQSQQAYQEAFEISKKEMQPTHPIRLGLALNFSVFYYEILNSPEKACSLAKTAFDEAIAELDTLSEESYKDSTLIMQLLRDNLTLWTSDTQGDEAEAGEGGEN
UniProt O95292: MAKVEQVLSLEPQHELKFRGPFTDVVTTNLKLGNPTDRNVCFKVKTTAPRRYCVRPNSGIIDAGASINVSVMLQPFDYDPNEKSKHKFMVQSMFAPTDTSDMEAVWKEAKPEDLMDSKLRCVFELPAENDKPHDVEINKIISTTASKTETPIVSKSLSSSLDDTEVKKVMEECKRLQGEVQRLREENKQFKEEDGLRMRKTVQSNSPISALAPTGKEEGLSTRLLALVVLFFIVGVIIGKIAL
UniProt Q3ZCQ8, residues 45-353: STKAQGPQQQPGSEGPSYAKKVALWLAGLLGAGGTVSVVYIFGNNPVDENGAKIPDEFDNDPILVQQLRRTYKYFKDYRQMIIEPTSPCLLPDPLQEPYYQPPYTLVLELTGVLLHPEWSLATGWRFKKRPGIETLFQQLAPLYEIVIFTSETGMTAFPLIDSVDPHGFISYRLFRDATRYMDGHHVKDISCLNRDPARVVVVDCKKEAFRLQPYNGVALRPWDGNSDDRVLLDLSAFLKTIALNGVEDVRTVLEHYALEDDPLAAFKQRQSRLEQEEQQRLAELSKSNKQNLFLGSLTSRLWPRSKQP
UniProt P25705, residues 44-553: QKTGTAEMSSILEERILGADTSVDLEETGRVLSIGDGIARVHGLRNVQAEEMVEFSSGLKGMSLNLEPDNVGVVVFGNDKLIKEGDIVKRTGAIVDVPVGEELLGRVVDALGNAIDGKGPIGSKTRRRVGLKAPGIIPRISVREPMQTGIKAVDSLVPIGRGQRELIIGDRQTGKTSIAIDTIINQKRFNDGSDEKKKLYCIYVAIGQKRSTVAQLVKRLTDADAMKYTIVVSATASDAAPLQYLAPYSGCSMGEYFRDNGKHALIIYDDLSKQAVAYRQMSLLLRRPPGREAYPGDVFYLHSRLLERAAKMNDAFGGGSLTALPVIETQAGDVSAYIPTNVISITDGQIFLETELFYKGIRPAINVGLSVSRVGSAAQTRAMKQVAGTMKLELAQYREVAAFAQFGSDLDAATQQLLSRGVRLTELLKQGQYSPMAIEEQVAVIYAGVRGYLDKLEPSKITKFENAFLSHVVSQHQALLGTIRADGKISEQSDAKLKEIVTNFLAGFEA
UniProt Q00610: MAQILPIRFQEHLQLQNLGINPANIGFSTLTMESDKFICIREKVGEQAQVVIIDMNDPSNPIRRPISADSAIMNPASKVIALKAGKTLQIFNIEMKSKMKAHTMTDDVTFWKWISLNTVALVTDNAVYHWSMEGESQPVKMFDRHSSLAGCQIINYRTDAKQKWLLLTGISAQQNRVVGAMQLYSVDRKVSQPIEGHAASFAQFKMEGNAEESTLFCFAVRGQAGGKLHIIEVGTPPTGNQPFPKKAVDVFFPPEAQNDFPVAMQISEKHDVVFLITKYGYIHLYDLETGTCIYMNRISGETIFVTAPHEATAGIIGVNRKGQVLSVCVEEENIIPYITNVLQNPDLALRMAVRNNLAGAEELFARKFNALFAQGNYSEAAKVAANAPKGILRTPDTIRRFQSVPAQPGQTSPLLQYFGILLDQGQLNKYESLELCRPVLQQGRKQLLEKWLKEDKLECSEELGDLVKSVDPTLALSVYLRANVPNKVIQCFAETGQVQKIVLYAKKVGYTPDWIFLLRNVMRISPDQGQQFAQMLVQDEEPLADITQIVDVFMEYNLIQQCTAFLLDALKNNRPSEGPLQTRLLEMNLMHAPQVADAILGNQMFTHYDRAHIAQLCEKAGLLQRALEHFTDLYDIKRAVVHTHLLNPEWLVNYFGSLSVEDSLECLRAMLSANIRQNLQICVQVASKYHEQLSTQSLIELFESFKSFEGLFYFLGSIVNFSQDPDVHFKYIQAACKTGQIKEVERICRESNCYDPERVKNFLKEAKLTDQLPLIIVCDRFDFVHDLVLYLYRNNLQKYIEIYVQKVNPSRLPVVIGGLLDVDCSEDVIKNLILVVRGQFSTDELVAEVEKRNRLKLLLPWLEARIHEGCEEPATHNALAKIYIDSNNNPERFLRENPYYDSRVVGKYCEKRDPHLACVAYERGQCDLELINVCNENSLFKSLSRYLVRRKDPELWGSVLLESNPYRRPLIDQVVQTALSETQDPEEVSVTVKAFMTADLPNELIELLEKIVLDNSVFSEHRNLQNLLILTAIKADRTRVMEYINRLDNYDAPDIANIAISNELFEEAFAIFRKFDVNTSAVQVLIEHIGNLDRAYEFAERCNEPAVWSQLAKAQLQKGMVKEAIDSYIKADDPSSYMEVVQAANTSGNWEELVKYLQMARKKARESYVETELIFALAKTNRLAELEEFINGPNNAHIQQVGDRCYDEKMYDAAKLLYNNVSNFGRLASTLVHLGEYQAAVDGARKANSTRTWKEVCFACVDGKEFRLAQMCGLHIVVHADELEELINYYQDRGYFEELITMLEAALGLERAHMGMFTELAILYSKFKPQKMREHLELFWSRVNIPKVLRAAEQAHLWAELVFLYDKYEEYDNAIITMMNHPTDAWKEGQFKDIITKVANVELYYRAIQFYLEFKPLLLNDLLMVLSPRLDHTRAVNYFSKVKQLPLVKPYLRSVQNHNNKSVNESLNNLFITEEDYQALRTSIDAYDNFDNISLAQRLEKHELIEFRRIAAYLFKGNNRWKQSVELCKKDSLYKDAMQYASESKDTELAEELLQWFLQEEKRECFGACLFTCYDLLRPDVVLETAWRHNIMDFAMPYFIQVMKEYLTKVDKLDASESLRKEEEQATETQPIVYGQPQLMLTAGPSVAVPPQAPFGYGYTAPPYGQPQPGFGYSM
UniProt Q9NYU2, residues 43-1555: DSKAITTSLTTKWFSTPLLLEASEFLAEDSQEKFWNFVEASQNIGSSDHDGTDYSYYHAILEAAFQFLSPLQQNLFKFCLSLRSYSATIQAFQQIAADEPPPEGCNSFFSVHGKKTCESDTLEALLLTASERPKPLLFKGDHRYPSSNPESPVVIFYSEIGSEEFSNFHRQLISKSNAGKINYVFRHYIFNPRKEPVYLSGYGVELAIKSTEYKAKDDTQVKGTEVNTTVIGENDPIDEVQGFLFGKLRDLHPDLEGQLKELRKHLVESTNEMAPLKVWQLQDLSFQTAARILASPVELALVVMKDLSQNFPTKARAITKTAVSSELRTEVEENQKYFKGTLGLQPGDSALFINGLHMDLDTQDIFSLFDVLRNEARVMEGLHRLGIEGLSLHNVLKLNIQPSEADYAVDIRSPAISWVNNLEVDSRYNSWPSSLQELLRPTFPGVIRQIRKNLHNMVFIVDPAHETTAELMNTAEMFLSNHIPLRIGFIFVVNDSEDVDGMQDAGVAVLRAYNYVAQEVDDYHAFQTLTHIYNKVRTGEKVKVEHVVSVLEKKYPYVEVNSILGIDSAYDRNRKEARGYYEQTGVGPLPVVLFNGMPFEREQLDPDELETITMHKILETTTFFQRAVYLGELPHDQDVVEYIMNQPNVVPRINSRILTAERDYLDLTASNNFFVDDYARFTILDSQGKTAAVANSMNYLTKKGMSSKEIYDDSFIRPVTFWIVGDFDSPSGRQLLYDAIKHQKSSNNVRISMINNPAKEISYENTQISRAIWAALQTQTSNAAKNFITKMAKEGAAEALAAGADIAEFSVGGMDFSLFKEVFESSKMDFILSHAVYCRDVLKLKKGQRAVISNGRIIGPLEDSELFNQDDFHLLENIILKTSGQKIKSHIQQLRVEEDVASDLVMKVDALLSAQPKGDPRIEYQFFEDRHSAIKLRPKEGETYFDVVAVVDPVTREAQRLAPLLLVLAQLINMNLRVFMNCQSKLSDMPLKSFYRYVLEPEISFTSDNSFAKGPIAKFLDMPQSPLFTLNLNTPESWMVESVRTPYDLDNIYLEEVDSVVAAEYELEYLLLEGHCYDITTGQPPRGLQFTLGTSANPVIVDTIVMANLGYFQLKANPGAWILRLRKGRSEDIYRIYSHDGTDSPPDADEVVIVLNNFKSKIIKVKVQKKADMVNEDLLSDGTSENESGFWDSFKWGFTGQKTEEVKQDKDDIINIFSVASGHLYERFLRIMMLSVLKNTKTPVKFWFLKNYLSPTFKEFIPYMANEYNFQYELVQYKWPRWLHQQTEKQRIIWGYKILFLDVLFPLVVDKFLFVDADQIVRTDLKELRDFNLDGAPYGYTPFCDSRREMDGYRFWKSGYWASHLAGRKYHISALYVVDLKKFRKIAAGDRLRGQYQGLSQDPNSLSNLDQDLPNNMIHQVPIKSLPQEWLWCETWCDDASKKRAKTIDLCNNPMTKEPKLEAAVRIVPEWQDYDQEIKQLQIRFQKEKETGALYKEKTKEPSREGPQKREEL
UniProt P30101, residues 25-505: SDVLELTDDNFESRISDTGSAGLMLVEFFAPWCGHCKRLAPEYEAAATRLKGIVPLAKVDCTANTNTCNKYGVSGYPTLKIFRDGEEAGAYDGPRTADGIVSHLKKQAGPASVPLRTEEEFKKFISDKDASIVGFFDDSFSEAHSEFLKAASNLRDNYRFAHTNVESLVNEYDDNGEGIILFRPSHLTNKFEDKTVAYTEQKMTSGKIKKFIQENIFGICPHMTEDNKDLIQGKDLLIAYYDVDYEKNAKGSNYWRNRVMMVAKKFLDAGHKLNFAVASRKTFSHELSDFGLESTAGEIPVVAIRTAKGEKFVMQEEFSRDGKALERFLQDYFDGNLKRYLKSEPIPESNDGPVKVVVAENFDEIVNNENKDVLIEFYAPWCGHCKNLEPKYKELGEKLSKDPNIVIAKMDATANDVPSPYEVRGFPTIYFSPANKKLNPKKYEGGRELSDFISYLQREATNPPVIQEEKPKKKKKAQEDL
UniProt P68871: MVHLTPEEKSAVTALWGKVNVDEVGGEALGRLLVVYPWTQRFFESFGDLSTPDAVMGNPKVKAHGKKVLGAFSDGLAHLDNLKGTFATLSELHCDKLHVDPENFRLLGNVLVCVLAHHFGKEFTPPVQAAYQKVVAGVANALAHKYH
UniProt P62258: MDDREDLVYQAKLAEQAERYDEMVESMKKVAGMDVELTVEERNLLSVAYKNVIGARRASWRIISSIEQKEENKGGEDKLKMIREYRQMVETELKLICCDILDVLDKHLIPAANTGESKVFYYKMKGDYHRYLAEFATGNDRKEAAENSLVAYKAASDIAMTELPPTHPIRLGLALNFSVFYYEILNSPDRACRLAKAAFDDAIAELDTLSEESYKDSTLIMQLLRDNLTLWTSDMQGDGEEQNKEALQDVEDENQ

T1: human CaSR with FLAG-tag (FLAG-hCaSR) (human) (UniProt P41180)
T1 sequence: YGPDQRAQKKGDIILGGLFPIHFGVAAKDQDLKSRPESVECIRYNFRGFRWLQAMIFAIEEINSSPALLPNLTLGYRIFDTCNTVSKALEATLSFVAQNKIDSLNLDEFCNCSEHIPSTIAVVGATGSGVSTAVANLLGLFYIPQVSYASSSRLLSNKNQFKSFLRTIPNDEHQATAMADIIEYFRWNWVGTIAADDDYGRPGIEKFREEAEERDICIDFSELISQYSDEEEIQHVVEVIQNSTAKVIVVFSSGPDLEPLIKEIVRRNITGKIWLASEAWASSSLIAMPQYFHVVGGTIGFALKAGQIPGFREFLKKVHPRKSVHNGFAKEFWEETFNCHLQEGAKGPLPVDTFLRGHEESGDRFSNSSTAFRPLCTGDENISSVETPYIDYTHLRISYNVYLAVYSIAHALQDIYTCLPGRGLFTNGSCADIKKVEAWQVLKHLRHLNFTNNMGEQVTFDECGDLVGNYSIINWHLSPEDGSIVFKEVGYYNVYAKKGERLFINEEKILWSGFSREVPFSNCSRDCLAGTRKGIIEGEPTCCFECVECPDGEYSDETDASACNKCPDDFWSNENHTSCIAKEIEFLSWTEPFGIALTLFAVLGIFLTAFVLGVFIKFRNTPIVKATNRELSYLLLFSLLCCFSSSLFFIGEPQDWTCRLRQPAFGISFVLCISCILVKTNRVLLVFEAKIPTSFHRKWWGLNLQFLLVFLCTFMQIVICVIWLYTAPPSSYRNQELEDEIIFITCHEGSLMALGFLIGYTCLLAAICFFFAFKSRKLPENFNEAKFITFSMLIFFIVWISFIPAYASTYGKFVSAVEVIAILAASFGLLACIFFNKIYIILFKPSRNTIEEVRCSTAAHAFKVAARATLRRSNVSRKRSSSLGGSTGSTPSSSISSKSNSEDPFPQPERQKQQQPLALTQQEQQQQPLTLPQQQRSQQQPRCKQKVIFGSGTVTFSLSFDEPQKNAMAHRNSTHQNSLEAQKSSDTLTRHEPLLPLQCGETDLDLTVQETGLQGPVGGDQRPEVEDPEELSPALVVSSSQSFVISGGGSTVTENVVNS

B1: SRPRB (protein, UniProt Q9Y5M8 1-271)
chain: MASADSRRVADGGGAGGTFQPYLDTLRQELQQTDPTLLSVVVAVLAVLLTLVFWKLIRSRRSSQRAVLLVGLCDSGKTLLFVRLLTGLYRDTQTSITDSCAVYRVNNNRGNSLTLIDLPGHESLRLQFLERFKSSARAIVFVVDSAAFQREVKDVAEFLYQVLIDSMGLKNTPSFLIACNKQDIAMAKSAKLIQQQLEKELNTLRVTRSAAPSTLDSSSTAPAQLGKKGKEFEFSQLPLKVEFLECSAKGGRGDVGSADIQDLEKWLAKIA
B2: WDR6 (protein, UniProt Q9NNW5 1-1121)
chain: MDALEDYVWPRATSELILLPVTGLECVGDRLLAGEGPDVLVYSLDFGGHLRMIKRVQNLLGHYLIHGFRVRPEPNGDLDLEAMVAVFGSKGLRVVKISWGQGHFWELWRSGLWNMSDWIWDARWLEGNIALALGHNSVVLYDPVVGCILQEVPCTDRCTLSSACLIGDAWKELTIVAGAVSNQLLVWYPATALADNKPVAPDRRISGHVGIIFSMSYLESKGLLATASEDRSVRIWKVGDLRVPGGRVQNIGHCFGHSARVWQVKLLENYLISAGEDCVCLVWSHEGEILQAFRGHQGRGIRAIAAHERQAWVITGGDDSGIRLWHLVGRGYRGLGVSALCFKSRSRPGTLKAVTLAGSWRLLAVTDTGALYLYDVEVKCWEQLLEDKHFQSYCLLEAAPGPEGFGLCAMANGEGRVKVVPINTPTAAVDQTLFPGKVHSLSWALRGYEELLLLASGPGGVVACLEISAAPSGKAIFVKERCRYLLPPSKQRWHTCSAFLPPGDFLVCGDRRGSVLLFPSRPGLLKDPGVGGKARAGAGAPVVGSGSSGGGNAFTGLGPVSTLPSLHGKQGVTSVTCHGGYVYTTGRDGAYYQLFVRDGQLQPVLRQKSCRGMNWLAGLRIVPDGSMVILGFHANEFVVWNPRSHEKLHIVNCGGGHRSWAFSDTEAAMAFAYLKDGDVMLYRALGGCTRPHVILREGLHGREITCVKRVGTITLGPEYGVPSFMQPDDLEPGSEGPDLTDIVITCSEDTTVCVLALPTTTGSAHALTAVCNHISSVRAVAVWGIGTPGGPQDPQPGLTAHVVSAGGRAEMHCFSIMVTPDPSTPSRLACHVMHLSSHRLDEYWDRQRNRHRMVKVDPETRYMSLAVCELDQPGLGPLVAAACSDGAVRLFLLQDSGRILQLLAETFHHKRCVLKVHSFTHEAPNQRRRLLLCSAATDGSLAFWDLTTMLDHDSTVLEPPVDPGLPYRLGTPSLTLQAHSCGINSLHTLPTREGHHLVASGSEDGSLHVFVLAVEMLQLEEAVGEAGLVPQLRVLEEYSVPCAHAAHVTGLKILSPSIMVSASIDQRLTFWRLGHGEPTFMNSTVFHVPDVADMDCWPVSPEFGHRCALGGQGLEVYNWYD
B3: YWHAQ (14-3-3 θ) (protein, UniProt P27348 1-245)
chain: MEKTELIQKAKLAEQAERYDDMATCMKAVTEQGAELSNEERNLLSVAYKNVVGGRRSAWRVISSIEQKTDTSDKKLQLIKDYREKVESELRSICTTVLELLDKYLIANATNPESKVFYLKMKGDYFRYLAEVACGDDRKQTIDNSQGAYQEAFDISKKEMQPTHPIRLGLALNFSVFYYEILNNPELACTLAKTAFDEAIAELDTLNEDSYKDSTLIMQLLRDNLTLWTSDSAGEECDAAEGAEN
B4: MT-ATP8 (protein, UniProt P03928 1-68)
chain: MPQLNTTVWPTMITPMLLTLFLITQLKMLNTNYHLPPSPKPMKMKNYNKPWEPKWTKICSLHSLPPQS
B5: SRPR (protein, UniProt P08240 1-638)
chain: MLDFFTIFSKGGLVLWCFQGVSDSCTGPVNALIRSVLLQERGGNNSFTHEALTLKYKLDNQFELVFVVGFQKILTLTYVDKLIDDVHRLFRDKYRTEIQQQSALSLLNGTFDFQNDFLRLLREAEESSKIRAPTTMKKFEDSEKAKKPVRSMIETRGEKPKEKAKNSKKKGAKKEGSDGPLATSKPVPAEKSGLPVGPENGVELSKEELIRRKREEFIQKHGRGMEKSNKSTKSDAPKEKGKKAPRVWELGGCANKEVLDYSTPTTNGTPEAALSEDINLIRGTGSGGQLQDLDCSSSDDEGAAQNSTKPSATKGTLGGMFGMLKGLVGSKSLSREDMESVLDKMRDHLIAKNVAADIAVQLCESVANKLEGKVMGTFSTVTSTVKQALQESLVQILQPQRRVDMLRDIMDAQRRQRPYVVTFCGVNGVGKSTNLAKISFWLLENGFSVLIAACDTFRAGAVEQLRTHTRRLSALHPPEKHGGRTMVQLFEKGYGKDAAGIAMEAIAFARNQGFDVVLVDTAGRMQDNAPLMTALAKLITVNTPDLVLFVGEALVGNEAVDQLVKFNRALADHSMAQTPRLIDGIVLTKFDTIDDKVGAAISMTYITSKPIVFVGTGQTYCDLRSLNAKAVVAALMKA
B6: YWHAG (14-3-3 γ) (protein, UniProt P61981 1-247)
chain: MVDREQLVQKARLAEQAERYDDMAAAMKNVTELNEPLSNEERNLLSVAYKNVVGARRSSWRVISSIEQKTSADGNEKKIEMVRAYREKIEKELEAVCQDVLSLLDNYLIKNCSETQYESKVFYLKMKGDYYRYLAEVATGEKRATVVESSEKAYSEAHEISKEHMQPTHPIRLGLALNYSVFYYEIQNAPEQACHLAKTAFDDAIAELDTLNEDSYKDSTLIMQLLRDNLTLWTSDQQDDDGGEGNN
B7: TMED9 (p24) (protein, UniProt Q9BVK6 38-235)
chain: LYFHIGETEKKCFIEEIPDETMVIGNYRTQLYDKQREEYQPATPGLGMFVEVKDPEDKVILARQYGSEGRFTFTSHTPGEHQICLHSNSTKFSLFAGGMLRVHLDIQVGEHANDYAEIAAKDKLSELQLRVRQLVEQVEQIQKEQNYQRWREERFRQTSESTNQRVLWWSILQTLILVAIGVWQMRHLKSFFEAKKLV

Target: T1, human CaSR with FLAG-tag (FLAG-hCaSR) (human)
Assay: affinity purification with mass spectrometry; anti-FLAG M2 on Protein G Dynabeads, 1.0 mg cleared lysate (1% Triton X-100, 150 mM NaCl, Tris pH 7.4) of HEK293 cells transfected with FLAG-hCaSR or empty pcDNA3.1, 10 h at 4 °C; cells serum-starved, then treated with 4 mM Ca2+ or 2 mM EGTA for 2 h; on-bead digestion, LC-MS/MS, triplicates; hits at least twofold over the negative control, P ≤ 0.05

binding | Molecule
binds | B1
binds | B2
binds | B3
binds | B4
binds | B5
binds | B6
binds | B7

Target: T1, human CaSR with FLAG-tag (FLAG-hCaSR) (human)
Assay: as above
Remark: another data set of the same source

binding | Molecule
binds | 78-kDa glucose regulated protein (GRP78), endogenous (from UniProt P11021 19-654)
binds | GRP94 (from UniProt P14625 22-803)
binds | RAB6 (human (endogenous in HEK293))
binds | DNAJ1 (human (endogenous in HEK293))
binds | NDUFA4 (from UniProt O00483 1-81)
binds | RAB18 (from UniProt Q9NP72 1-206)
binds | SKP1 (from UniProt P63208 1-163)
binds | YWHAZ (14-3-3 ζ) (from UniProt P63104 1-245)
binds | RAB5c (from UniProt P51148 1-216)
binds | VAPB (from UniProt O95292 1-243)
binds | HSP90AA1 (from UniProt P07900 1-732)
binds | RANBP2 (from UniProt P49792 1-3224)
binds | Tubulin α-1C (TUBA1C) (from UniProt Q9BQE3 1-449)
binds | TIMM50 (from UniProt Q3ZCQ8 45-353)
binds | ATP5A1 (from UniProt P25705 44-553)
binds | RALBP1 (from UniProt Q15311 1-655)
binds | clathrin heavy chain (CLTC) (from UniProt Q00610 1-1675)
binds | UGGT1 (from UniProt Q9NYU2 43-1555)
binds | HSPD1 (from UniProt P10809 27-573)
binds | STUB1 (from UniProt Q9UNE7 1-303)
binds | ATP2A2/SERCA-2b (from UniProt P16615-1 1-1042)
binds | PDIA3 (from UniProt P30101 25-505)
binds | CANX (calnexin) (from UniProt P27824 21-592)
binds | HBB (from UniProt P68871 1-147)
binds | YWHAE (14-3-3 ε) (from UniProt P62258 1-255)
